Assay results published in PubChem BioAssay AID540256 (National Center for Advancing Translational Sciences (NCATS), 2011).
The whole screen tested about 300,000 compounds, of which about 3,700 (1.2%) were called active. The shares of active, inactive and inconclusive entries below differ from those in the screen. The call rests on the fitted dose curve; tested in HEK293 cells. Potencies beside an inconclusive call are fits to weak or partial responses and may not hold up.

assay: qHTS for Inhibitors of binding or entry into cells for Lassa Virus; conditions: Lassa virus pseudotype entry inhibition, cell reporter; activity change, negative = inhibition: at 37.9 µM (top of the series) unless noted; further: nearly all actives have a fitted effect of over 50% in size
On the % scale 0 is the no-effect control and ±100 the full control effect; potency means the concentration at half of the fitted maximal effect.

SMILES	Potency	activity change, negative = inhibition
CCc1oc2ccccc2c1C(=O)CCN1CCCCC1	inconclusive: 0.366 µM [inhibitor, full curve, poor fit]	–
Nc1cc(Cl)c2nonc2c1[N+](=O)[O-]	inconclusive: 15.8 µM [inhibitor, single point]	–
C=CCn1c(=S)[nH]c2cc(C(=O)Nc3ccc(F)cc3)ccc2c1=O	inconclusive: 3.16 µM [inhibitor, single point]	–
CC(C)(C)c1ccc(NC(=O)COc2ccc(-n3ccnc3)cc2)cc1	inconclusive: 22.4 µM [inhibitor, single point]	–
Cc1ccc(-c2noc(C3CCCN(C(=O)C4CCCCC4)C3)n2)o1 (configuration not stated)	inconclusive: 16.4 µM [activator, single point]	–
CC1=C(C(=O)Nc2cccc(C(F)(F)F)c2)C2(CCCCCC2)OC1=O	–	inactive: -0.964% [at 46.1 µM]
O=C(NCCC1=CCCCC1)c1ccc(Cl)c([N+](=O)[O-])c1	inconclusive: 2.82 µM [inhibitor, full curve, poor fit]	–
CCn1c(SCc2nc3scc(-c4ccccc4)c3c(=O)[nH]2)nnc1-c1ccc(Cl)cc1	–	inactive: 6.25%
O=C(COC(=O)c1cc([N+](=O)[O-])ccc1N1CCOCC1)Nc1ccc(Cl)cn1	–	inactive: -2.79%
COc1ccccc1NC(=O)Cn1c(=O)n(-c2cccc(Cl)c2)c(=O)c2sc3ccccc3c21	inconclusive: 3.16 µM [inhibitor, single point]	–
CC1CCN(S(=O)(=O)c2ccc(C(C)C)cc2)CC1	inconclusive: 14.1 µM [inhibitor, partial curve, poor fit]	–
O=C(N/N=C/c1cccnc1)c1cccc(NC(=O)c2ccccc2Cl)c1	–	inactive: 14.7%
Cc1ccc2c(c1)sc1nc(-c3cc4cc(Cl)ccc4oc3=O)cn12	–	inactive: 1.33% [at 46.1 µM]
O=C(N/N=C/c1ccc(OC(=O)c2ccccc2)cc1)c1cccc(O)c1	inconclusive: 35.5 µM [inhibitor, single point]	–
O=C(COC(=O)c1n[nH]c(=O)c2ccccc12)Nc1ccccc1	inconclusive: 1 µM [activator, partial curve, poor fit]	–
O=C(Nc1nnc(C2=COCCO2)o1)c1ccc(Cc2ccccc2)cc1	inconclusive: 1.12 µM [inhibitor, single point]	–
COc1ccc(OC)c(NC(=O)c2cc3cc4ccc(C)cc4nc3s2)c1	–	inactive: 16.1% [at 46.1 µM]
CCn1c(SCC(=O)Nc2nc(-c3ccc(C)cc3)cs2)nnc1-c1ccccc1O	inconclusive: 35.5 µM [inhibitor, single point]	–
C/C(Cn1nnc([N+](=O)[O-])n1)=N\NC(=O)c1cccc(Cl)c1	inconclusive: 0.116 µM [inhibitor, full curve, poor fit]	–
CN1CCN(C2=Cc3ccccc3Sc3cc(F)c(F)cc32)CC1	inconclusive: 14.1 µM [inhibitor, single point]	–
Cc1ccc(N(C(=O)c2ccco2)C(C(=O)NC2CCCC2)c2ccco2)c(C)c1 (configuration not stated)	inconclusive: 35.5 µM [inhibitor, single point]	–
O=C(N/N=C/c1cc(Br)cc(Br)c1O)c1cccc(N2CCCC2=O)c1	inconclusive: 7.94 µM [inhibitor, partial curve, poor fit]	–
O=C(/C=C/c1ccc2c(c1)OCO2)NCCSCc1ccc(Cl)cc1Cl	inconclusive: 10 µM [inhibitor, partial curve, poor fit]	–

Taken from above.
In Potency, O=C(/C=C/c1ccc2c(c1)OCO2)NCCSCc1ccc(Cl)cc1Cl reads inconclusive: 10 µM [inhibitor, partial curve, poor fit]
In Potency, C/C(Cn1nnc([N+](=O)[O-])n1)=N\NC(=O)c1cccc(Cl)c1 reads inconclusive: 0.116 µM [inhibitor, full curve, poor fit]

Later entries

SMILES	Potency	activity change, negative = inhibition
CSc1cccc(N2CC(C(=O)N(CC(C)C)c3c(N)n(Cc4ccccc4)c(=O)[nH]c3=O)CC2=O)c1 (configuration not stated)	–	inactive: -18.5%
Cc1cc(N2CCN(c3nc(-c4ccc([N+](=O)[O-])cc4)cs3)CC2)c2ccccc2n1	inconclusive: 28.2 µM [inhibitor, single point]	–
O=C(NCc1ccc(Cl)cc1)C(=O)NCC1OCCN1S(=O)(=O)c1cc(F)ccc1F (configuration not stated)	inconclusive: 0.794 µM [inhibitor, full curve, poor fit]	–
CCCN(CCC)c1ncnc2c1cnn2-c1ccc(OC)cc1	inconclusive: 10.3 µM [inhibitor, partial curve, poor fit]	–
O=C(Nc1c2c(nn1-c1ccc(Cl)cc1)CS(=O)(=O)C2)c1cccc(Cl)c1	inconclusive: 10 µM [inhibitor, partial curve, poor fit]	–
CCC(CO)NC(=O)c1cccc(S(=O)(=O)N2c3ccccc3CC2C)c1 (configuration not stated)	inconclusive: 12.6 µM [inhibitor, single point]	–
CC1=C(C(=O)Nc2ccccc2)C(c2cccs2)n2nc(SCc3ccccc3)nc2N1 (configuration not stated)	–	inactive: 19% [at 46.1 µM]
CCCCCCCn1c(=O)c(C(=O)OC)c(N)c2ccccc21	inconclusive: 25.1 µM [inhibitor, single point]	–
COc1ccccc1NS(=O)(=O)c1cc(NC(=O)c2ccc(Cl)nc2)ccc1Cl	inconclusive: 11.6 µM [inhibitor, single point]	–
COc1cccc(N=c2oc3cc(O)ccc3cc2C(=O)NCC2CCCO2)c1 (configuration not stated)	–	inactive: 2.98% [at 46.1 µM]
O=C(c1ccccc1)N1CCN(C2c3cccc4cccc(c34)C2NS(=O)(=O)c2ccccc2)CC1 (configuration not stated)	inconclusive: 16.4 µM [inhibitor, partial curve, poor fit]	–
COc1cccc(CNC(=O)CSc2n[nH]c(-c3ccccc3Cl)n2)c1	–	inactive: -18.8% [at 46.1 µM]
COc1ccc(OC)c(CCNC(=O)CN2C(=O)COc3ccc(S(=O)(=O)N4CCCCCC4)cc32)c1	–	inactive: -14.3% [at 46.1 µM]
CCc1ccc(CNC(=O)c2ccc3c(c2)nc2n3CCCCC2)cc1	inconclusive: 2.82 µM [activator, full curve]	–
O=C(N/N=C/C=C/c1ccco1)c1cnccn1	–	inactive: -1.87%
Cc1[nH]c2ccccc2c1/C=C(\C#N)C(=O)NC(C)c1ccccc1 (configuration not stated)	–	inactive: -3.35%
COC(=O)c1cc(OC)c(OC)cc1NC(=O)c1ccc2c(c1)CCN2S(=O)(=O)c1ccccc1	–	inactive: 0.314% [at 46.1 µM]
O=C(NCc1ccccn1)c1nn(-c2ccccc2F)nc1CO	inconclusive: 11.2 µM [inhibitor, partial curve, poor fit]	–
O=C1N(Cc2cccnc2)C[C@@H]2C[C@@H](c3ccccc3C#Cc3ccccc3)N3CCC[C@@]123	inconclusive: 10 µM [inhibitor, partial curve, poor fit]	–
CCOc1ccccc1CN1CCc2nc(Nc3ccccc3)ncc2C1	–	inactive: 15.5% [at 46.1 µM]
COc1ccc(CC(=O)N2CCc3cc(OC)c(OC)cc3C2)cc1	–	inactive: -0.635% [at 46.1 µM]
CN(C)CCN(C)Cc1c2ccccc2c(CN(C)CCN(C)C)c2ccccc12	inconclusive: 10 µM [inhibitor, partial curve]	–
CC(C)NC(=O)c1cc(-c2cccs2)on1	inconclusive: 8.2 µM [activator, partial curve]	–

SMILES	Potency	activity change, negative = inhibition
Cc1cc(C)n2nc(N)c(N=Nc3ccccc3)c2n1	–	inactive: -10.8% [at 46.1 µM]
Cc1ccc2nc(SCC(=O)NC(=O)NCc3ccco3)[nH]c2c1	–	inactive: -9.02%
CCOc1cccc2sc(N(CCCN(C)C)C(=O)c3ccc(C(=O)c4ccccc4)cc3)nc12	inconclusive: 10 µM [inhibitor, partial curve, poor fit]	–
CCCCOc1ccc(C(=O)Nc2ccc3c(c2)CCCN3S(=O)(=O)c2ccc(C)cc2)cc1	inconclusive: 10 µM [inhibitor, partial curve]	–
CCOC(=O)c1sc(C)c2c(=O)n(CC(=O)c3ccc(Br)cc3)nnc12	inconclusive: 35.5 µM [inhibitor, single point]	–
O=C(CCl)Oc1ccc2occ(C(=O)c3cccs3)c2c1	–	inactive: 18.4%
Cc1csc(SCC(=O)Nc2ccc(Cl)cn2)n1	inconclusive: 2.82 µM [inhibitor, single point]	–
O=C(CCC1CCCN(C(=O)c2ccco2)C1)NCc1ccccc1F (configuration not stated)	inconclusive: 0.794 µM [inhibitor, full curve, poor fit]	–
CC(/C=N/NC(=O)c1cc(C(C)(C)C)[nH]n1)=C\c1ccccc1	inconclusive: 35.5 µM [inhibitor, single point]	–
Nc1ccc(Br)cc1C(=O)O	inconclusive: 8.2 µM [inhibitor, partial curve]	–
C/C(=C\C(=O)c1ccc(Br)cc1)Nc1cccc(Cl)c1	inconclusive: 10 µM [activator, partial curve, poor fit]	–
O=C(Nc1nc2ccc(Br)cc2s1)c1ccco1	inconclusive: 14.1 µM [inhibitor, single point]	–
CCOc1ccc(-c2cc(NC(=O)Nc3ccccc3C(F)(F)F)c(C(=O)OC)s2)cc1	inconclusive: 31.6 µM [activator, single point]	–
COc1ccc(-n2c(C)nnc2SCC(=O)N2C(C)CCCC2C)cc1 (configuration not stated)	inconclusive: 2.91 µM [inhibitor, partial curve, poor fit]	–
Cc1ccc(S(=O)(=O)NCCC(=O)NCc2ccco2)cc1	inconclusive: 2.06 µM [inhibitor, partial curve, poor fit]	–
COc1ccc(Nc2nnc(SC(C(=O)Nc3cc(C)ccc3C)c3ccccc3)s2)cc1 (configuration not stated)	inconclusive: 3.55 µM [inhibitor, full curve]	–
CCOc1cccc(/C=N/NC(=O)c2cc(-c3cccn3C)n[nH]2)c1O	active: 22.4 µM	–
COc1cc(-c2nn3c(C4CCCCC4)nnc3s2)cc(OC)c1OC	inconclusive: 12.6 µM [inhibitor, single point]	–
O=C(C1CCCCC1)N(Cc1cccnc1)c1nc2ccc(F)cc2s1	inconclusive: 20 µM [inhibitor, partial curve, poor fit]	–
CCOC(=O)c1cnc(SCC(=O)c2ccccc2)nc1N	inconclusive: 4.11 µM [activator, single point]	–
Cn1c(NCC(O)CO)nc2c1c(=O)n(Cc1ccc(Cl)c(Cl)c1)c(=O)n2C (configuration not stated)	–	inactive: 3.89%
